Assay: general procedure: solution-phase peptide synthesis; DCC/HOBT; propane-phosphonic acid anhydride
Details: late stage modification step; run 1

With “N-Benzyloxycarbonyl-L-phenylalanyl-L-histidyl-4S-amino-3S-hydroxy-5-(4-nitrophenyl)pentanoyl-L-isoleucine methyl ester” the step yield was 15% of theory.
